Earlier results, collected in Sander's compilation of Henry's law constants.

Experiment: Henry solubility constant Hcp at 298.15 K (mol/(m3 Pa))
Details: reference: Brockbank (2013); cited value

CCCCCCCCCO [1-nonanol]
Henry solubility constant Hcp: 0.27
